Results: patent US20140243391A1, “PHOSPHOLIPID-DETERGENT CONJUGATES AND USES THEREOF” (CENTRE NATIONAL DE LA RECHERCHE SCIENTIFIQUE, priority 2011, published 2014)
Some results were stated once for a whole list of compounds, not compound by compound.

Test system: NCI-H292 cells
Test: LDH release assay, NCI-H292 cells
Assay type: cell-based, human
Details: NCI-H292, pDNA lipoplexes

Substance	LDH release
1,2-Dioleoyl-sn-glycero-3-{1-[(dodecyloxycarbonyl)oxy]-2-methylpropyl}phosphocholine chloride [PP178]	30-40%
1,2-Dioleoyl-sn-glycero-3-{1-[(dodecyloxycarbonyl)oxy]ethyl}phosphocholine chloride [PP120]	30-40%
